These are yes or no findings as the source states them, for the method shown. Some results given as binding are weak or reduced against the parent protein; the word gives no strength. Where a sequence is shown, tags or fusion partners need not be part of it.
T1: GDF8 (UniProt O14793)
T1 sequence (looked up): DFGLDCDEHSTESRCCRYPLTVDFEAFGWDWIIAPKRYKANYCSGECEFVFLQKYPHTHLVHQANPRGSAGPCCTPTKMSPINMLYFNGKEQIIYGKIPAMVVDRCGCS

Sequences of proteins named here, by UniProt entry; tags and fusion partners are left off. Residues count along the entry.
UniProt P22004, residues 382-513: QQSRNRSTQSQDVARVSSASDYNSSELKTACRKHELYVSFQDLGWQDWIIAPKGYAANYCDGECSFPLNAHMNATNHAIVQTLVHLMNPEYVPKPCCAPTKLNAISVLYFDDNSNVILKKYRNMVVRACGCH

T2: GDF11 (UniProt O95390)
T2 sequence (looked up): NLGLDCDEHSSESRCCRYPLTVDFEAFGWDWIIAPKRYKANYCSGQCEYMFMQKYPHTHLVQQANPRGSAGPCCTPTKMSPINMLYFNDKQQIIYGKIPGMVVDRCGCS

T3: Activin B (UniProt P09529)
T3 sequence (looked up): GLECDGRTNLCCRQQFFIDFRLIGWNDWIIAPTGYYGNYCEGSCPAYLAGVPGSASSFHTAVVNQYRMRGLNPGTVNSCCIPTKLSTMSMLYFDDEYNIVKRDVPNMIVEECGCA


Tests used:
GDF8 [1] = biological target: T1, GDF8; assay: Biacore SPR (legend of FIG. 4)
BMP6 [2] = biological target: BMP6 (UniProt P22004); assay: Biacore SPR (legend of FIG. 4)
GDF11 [3] = biological target: T2, GDF11; assay: Biacore SPR (legend of FIG. 4)
GDF8 [4] = biological target: T1, GDF8; assay: Biacore SPR (retold in the reporter-assay paragraph)
GDF11 [5] = biological target: T2, GDF11; assay: as above
Activin B = biological target: T3, Activin B; assay: as above
GDF8 [6] = biological target: T1, GDF8; assay: Biacore SPR
BMP6 [7] = biological target: BMP6 (UniProt P22004); assay: Biacore SPR
GDF11 [8] = biological target: T2, GDF11; assay: Biacore SPR
GDF8, O14793 = assay: SPR (retold in Example 3; the ligands are those of the 58th table); conditions: remark: other sources report otherwise

binding (GDF8 [1])	binding (BMP6 [2])	binding (GDF11 [3])	binding (GDF8 [4])	binding (GDF11 [5])	binding (Activin B)	binding (GDF8 [6])	binding (BMP6 [7])	binding (GDF11 [8])	binding (GDF8, O14793)	Binder
binds	binds	binds	binds	binds	binds	binds	binds	binds	–	ActRIIB-Fc homodimer (Fc fusion, not shown: a dimerising Fc or GST) GRGEAETRECIYYNANWELERTNQSGLERCEGEQDKRLHCYASWRNSSGTIELVKKGCWLDDFNCYDRQECVATEENPQVYFCCCEGNFCNERFTHLPEAGGPEVTYEPPPTAPT
–	–	–	–	–	–	–	–	–	binds	ALK4-Fc homodimer, P36896 24-126 (Fc fusion, not shown: a dimerising Fc or GST) SGPRGVQALLCACTSCLQANYTCETDGACMVSIFNLDGMEHHVRTCIPKVELVPAGKPFYCLSSEDLRNTHCCYTDYCNRIDLRVPSGHLKEPEHPSMWGPVE

Source: US20250084388A1
